Measurements published in the supplement of paper PMC10849652.
This is one part of the list.

Chains of the proteins cited; added tags and fusions are not shown. Lines headed by an entry give the natural chain unless they say otherwise; changes in a name come on top.
UniProt Q96EN9: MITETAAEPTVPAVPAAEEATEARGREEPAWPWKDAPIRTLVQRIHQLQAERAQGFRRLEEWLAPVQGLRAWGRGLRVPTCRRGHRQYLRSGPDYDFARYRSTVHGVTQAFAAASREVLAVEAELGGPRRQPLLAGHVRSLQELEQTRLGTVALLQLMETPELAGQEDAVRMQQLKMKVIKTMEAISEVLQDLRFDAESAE
UniProt Q6ZS17: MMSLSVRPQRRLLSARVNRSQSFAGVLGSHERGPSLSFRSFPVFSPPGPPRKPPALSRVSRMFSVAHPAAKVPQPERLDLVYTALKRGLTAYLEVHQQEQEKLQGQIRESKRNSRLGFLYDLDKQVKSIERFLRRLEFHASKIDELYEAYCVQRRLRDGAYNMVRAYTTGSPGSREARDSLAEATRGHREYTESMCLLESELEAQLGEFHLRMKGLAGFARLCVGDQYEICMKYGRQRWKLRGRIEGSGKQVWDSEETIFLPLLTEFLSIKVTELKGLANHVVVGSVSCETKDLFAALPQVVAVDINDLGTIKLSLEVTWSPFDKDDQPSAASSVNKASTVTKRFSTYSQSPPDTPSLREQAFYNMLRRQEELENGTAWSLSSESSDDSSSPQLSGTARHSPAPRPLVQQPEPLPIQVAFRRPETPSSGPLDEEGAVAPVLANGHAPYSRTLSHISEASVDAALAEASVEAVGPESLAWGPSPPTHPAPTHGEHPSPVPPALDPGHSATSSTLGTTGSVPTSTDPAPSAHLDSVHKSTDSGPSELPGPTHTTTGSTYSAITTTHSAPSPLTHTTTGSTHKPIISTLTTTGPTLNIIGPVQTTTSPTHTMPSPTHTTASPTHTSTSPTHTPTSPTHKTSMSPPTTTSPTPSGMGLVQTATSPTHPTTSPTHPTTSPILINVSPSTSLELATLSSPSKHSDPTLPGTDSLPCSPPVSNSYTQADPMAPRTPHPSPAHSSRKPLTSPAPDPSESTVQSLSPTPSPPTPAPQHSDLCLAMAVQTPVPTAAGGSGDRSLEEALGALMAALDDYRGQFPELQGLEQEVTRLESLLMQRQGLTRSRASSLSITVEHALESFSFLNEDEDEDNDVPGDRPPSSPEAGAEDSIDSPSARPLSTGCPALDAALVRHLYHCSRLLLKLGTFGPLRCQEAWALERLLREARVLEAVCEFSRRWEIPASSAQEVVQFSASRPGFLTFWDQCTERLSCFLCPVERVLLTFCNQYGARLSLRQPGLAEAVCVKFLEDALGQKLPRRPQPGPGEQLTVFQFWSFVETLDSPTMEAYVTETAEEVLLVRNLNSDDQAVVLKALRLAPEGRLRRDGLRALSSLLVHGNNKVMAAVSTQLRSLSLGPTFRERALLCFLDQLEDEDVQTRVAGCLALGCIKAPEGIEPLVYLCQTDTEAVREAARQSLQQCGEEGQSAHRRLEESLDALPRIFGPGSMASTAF
UniProt Q05823: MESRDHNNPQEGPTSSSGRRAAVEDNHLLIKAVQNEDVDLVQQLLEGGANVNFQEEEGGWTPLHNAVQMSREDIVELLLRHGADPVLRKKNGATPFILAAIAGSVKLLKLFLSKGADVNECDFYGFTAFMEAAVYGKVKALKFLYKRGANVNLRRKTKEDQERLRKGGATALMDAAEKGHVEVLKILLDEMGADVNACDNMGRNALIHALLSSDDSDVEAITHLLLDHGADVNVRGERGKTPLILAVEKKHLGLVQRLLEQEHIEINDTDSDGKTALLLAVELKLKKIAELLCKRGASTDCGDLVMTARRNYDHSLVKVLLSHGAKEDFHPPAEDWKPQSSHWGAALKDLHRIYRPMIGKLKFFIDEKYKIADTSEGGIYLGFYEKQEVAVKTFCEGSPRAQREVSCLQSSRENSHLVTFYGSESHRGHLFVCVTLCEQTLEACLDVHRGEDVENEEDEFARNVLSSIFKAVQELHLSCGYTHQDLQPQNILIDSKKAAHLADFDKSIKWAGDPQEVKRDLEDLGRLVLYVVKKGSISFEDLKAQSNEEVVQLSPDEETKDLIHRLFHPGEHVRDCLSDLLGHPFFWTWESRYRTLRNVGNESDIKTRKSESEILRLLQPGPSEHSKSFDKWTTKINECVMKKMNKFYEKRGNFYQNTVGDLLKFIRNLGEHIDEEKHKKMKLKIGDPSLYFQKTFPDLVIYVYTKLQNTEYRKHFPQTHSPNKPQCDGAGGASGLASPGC
UniProt Q5VTB9: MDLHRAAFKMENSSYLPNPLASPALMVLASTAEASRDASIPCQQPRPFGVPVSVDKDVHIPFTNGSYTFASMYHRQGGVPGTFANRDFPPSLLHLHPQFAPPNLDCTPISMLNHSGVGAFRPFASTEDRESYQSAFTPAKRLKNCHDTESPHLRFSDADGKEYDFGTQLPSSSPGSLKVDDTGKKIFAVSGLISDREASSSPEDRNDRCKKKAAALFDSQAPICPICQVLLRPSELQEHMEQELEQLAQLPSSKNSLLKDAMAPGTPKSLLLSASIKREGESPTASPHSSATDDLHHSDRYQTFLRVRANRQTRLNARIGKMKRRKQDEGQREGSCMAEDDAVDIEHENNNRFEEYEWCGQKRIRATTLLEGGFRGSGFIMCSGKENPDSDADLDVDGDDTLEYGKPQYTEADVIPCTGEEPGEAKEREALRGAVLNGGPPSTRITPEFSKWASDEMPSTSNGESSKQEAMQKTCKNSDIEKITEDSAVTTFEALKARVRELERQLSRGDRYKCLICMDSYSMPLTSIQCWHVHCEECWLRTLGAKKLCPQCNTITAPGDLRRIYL
UniProt Q9NVN3: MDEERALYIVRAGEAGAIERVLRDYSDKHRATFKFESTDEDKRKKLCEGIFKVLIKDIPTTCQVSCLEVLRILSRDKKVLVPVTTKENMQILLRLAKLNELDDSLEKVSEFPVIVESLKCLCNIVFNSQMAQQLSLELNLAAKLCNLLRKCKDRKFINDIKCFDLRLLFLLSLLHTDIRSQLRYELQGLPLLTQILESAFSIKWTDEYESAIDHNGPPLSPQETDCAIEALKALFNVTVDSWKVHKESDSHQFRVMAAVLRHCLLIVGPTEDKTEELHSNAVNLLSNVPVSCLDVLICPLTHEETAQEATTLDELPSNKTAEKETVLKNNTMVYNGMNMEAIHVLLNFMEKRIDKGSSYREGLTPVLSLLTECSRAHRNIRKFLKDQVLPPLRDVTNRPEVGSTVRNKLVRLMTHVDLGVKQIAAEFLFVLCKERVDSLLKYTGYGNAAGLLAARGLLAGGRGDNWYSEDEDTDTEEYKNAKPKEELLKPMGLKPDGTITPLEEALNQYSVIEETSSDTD
UniProt Q8NCN4: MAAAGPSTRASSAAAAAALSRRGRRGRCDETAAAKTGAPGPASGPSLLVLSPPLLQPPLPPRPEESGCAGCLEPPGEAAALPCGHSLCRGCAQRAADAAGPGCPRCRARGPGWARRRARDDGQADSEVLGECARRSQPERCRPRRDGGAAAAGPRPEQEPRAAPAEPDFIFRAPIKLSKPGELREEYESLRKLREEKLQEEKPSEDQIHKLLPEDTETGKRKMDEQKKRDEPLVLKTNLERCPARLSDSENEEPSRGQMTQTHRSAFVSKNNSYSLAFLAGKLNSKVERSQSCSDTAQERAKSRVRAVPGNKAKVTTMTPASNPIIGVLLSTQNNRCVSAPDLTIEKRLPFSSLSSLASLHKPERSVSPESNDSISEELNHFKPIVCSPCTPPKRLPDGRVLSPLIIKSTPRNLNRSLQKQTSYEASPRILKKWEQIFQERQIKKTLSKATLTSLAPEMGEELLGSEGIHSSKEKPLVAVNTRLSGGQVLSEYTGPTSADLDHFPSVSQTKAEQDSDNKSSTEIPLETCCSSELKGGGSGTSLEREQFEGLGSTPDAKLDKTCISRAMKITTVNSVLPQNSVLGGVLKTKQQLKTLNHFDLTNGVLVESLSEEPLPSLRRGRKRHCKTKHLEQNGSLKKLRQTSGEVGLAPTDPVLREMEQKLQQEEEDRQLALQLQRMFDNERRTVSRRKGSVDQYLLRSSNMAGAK
UniProt Q6ZNA4: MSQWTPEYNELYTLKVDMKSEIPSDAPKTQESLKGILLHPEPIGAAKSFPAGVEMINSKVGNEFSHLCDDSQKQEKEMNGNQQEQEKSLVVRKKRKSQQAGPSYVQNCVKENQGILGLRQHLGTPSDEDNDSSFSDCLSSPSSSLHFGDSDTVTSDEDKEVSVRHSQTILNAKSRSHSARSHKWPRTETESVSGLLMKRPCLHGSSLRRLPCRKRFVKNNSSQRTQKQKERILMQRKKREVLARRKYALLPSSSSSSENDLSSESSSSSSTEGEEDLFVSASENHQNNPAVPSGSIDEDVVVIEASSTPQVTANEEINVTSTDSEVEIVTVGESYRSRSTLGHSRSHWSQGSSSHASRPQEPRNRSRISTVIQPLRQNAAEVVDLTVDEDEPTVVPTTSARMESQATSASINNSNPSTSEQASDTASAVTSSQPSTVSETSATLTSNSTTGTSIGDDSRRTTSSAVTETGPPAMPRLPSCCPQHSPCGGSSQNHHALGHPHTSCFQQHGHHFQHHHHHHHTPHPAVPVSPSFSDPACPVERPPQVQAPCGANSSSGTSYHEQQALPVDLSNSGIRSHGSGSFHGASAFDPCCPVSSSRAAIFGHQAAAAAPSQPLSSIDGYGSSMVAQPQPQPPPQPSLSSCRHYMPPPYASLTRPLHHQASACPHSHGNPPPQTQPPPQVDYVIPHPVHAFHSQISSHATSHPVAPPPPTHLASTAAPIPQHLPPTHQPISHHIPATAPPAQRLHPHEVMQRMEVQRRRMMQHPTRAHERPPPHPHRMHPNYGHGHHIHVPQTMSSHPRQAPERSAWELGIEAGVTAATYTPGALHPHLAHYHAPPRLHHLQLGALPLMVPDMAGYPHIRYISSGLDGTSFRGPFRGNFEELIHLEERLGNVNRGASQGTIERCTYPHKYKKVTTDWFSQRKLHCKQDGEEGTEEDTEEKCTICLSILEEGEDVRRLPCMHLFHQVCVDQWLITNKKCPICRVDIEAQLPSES

Tests used:
Assay in all cases: log2 fold change, soluble protein after heating vs DMSO (PISA); higher = thermal stabilisation; K562 cells, 10 uM, 30 min; active = over 0.2 and 3.5 SD of the protein, either way, in both replicates (recomputed)
[1] = compound: C[C@H](C1=CC=C(C=C1)C(=O)NC2=C3C=CNC3=NC=C2)N
Procedure, shortened: (§1)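 For each measurement, 10 μM compound was applied for 30 min to K562 cells at 2×10^6 cells/mL. Aliquots were heated for 3 min across 48°C-58°C, pooled, and extracted in PBS with 0.5% NP-40 at 4°C; the supernatant after 21,000xg for 90 min was soluble protein. This was quantified by TMTpro 16plex LC-MS/MS with channel sums equalised, and thermal stability was reported relative to control samples from duplicates, on a log2 fold-change scale.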

[2] = compound: Cn1cc(-c2ccc3c(c2)CCN3C(=O)Cc2cccc(C(F)(F)F)c2)c2c(N)ncnc21
Procedure, shortened: as §1

crizotinib = compound: C[C@@H](Oc1cc(-c2cnn(C3CCNCC3)c2)cnc1N)c1c(Cl)ccc(F)c1Cl [crizotinib]
Procedure, shortened: as §1

[3] = compound: C[C@@H]1COCCN1C2=NC(=NC(=C2)C3(CC3)S(=O)(=O)C)C4=C5C=CNC5=CC=C4
Procedure, shortened: as §1

tozasertib = compound: Cc1cc(Nc2cc(N3CCN(C)CC3)nc(Sc3ccc(NC(=O)C4CC4)cc3)n2)n[nH]1 [tozasertib]
Procedure, shortened: as §1

doramapimod = compound: Cc1ccc(-n2nc(C(C)(C)C)cc2NC(=O)Nc2ccc(OCCN3CCOCC3)c3ccccc23)cc1 [doramapimod]
Procedure, shortened: as §1

ispinesib = compound: Cc1ccc(C(=O)N(CCCN)[C@@H](c2nc3cc(Cl)ccc3c(=O)n2Cc2ccccc2)C(C)C)cc1 [ispinesib]
Procedure, shortened: as §1

[4] = compound: Cn1cc(-c2ccc3nnc(C(F)(F)c4ccc5ncccc5c4)n3n2)cn1
Procedure, shortened: as §1

gandotinib = compound: Cc1cc(Nc2cc(CN3CCOCC3)c3nc(C)c(Cc4ccc(Cl)cc4F)n3n2)n[nH]1 [gandotinib]
Procedure, shortened: as §1

[5] = compound: Cc1cccc(CC(=O)N2CCc3c2ccc(-c2cn(C)c4ncnc(N)c24)c3F)n1
Procedure, shortened: as §1

mubritinib = compound: FC(F)(F)c1ccc(/C=C/c2nc(COc3ccc(CCCCn4ccnn4)cc3)co2)cc1 [mubritinib]
Procedure, shortened: as §1

tipifarnib = compound: Cn1cncc1[C@@](N)(c1ccc(Cl)cc1)c1ccc2c(c1)c(-c1cccc(Cl)c1)cc(=O)n2C [tipifarnib]
Procedure, shortened: as §1

duvelisib = compound: C[C@H](Nc1ncnc2nc[nH]c12)c1cc2cccc(Cl)c2c(=O)n1-c1ccccc1 [duvelisib]
Procedure, shortened: as §1

[6] = compound: Cc1cc(SCc2sc(-c3ccc(C(F)(F)F)cc3)nc2C)ccc1OCC(=O)O
Procedure, shortened: as §1

dasatinib = compound: Cc1nc(Nc2ncc(C(=O)Nc3c(C)cccc3Cl)s2)cc(N2CCN(CCO)CC2)n1 [dasatinib]
Procedure, shortened: as §1

nilotinib = compound: Cc1cn(-c2cc(NC(=O)c3ccc(C)c(Nc4nccc(-c5cccnc5)n4)c3)cc(C(F)(F)F)c2)cn1 [nilotinib]
Procedure, shortened: as §1

[7] = compound: Cc1nc(Nc2n[nH]c3c2CN(C(=O)N[C@H](CN(C)C)c2ccccc2)C3(C)C)c2sccc2n1
Procedure, shortened: as §1

[8] = compound: Cc1ncc(-c2ccnc(Nc3ccc(S(C)(=O)=O)cc3)n2)n1C(C)C
Procedure, shortened: as §1

Measured: log2 fold change

REX1BD (UniProt Q96EN9)
inactive: [1] 0.388 | [2] -0.042

RIPOR1 isoform 4 (UniProt Q6ZS17)
inactive: crizotinib -0.046 | [3] 0 | tozasertib -0.005 | doramapimod 0.081 | ispinesib -0.339 | [4] -0.283

RNASEL (UniProt Q05823)
inactive: gandotinib 0.315 | ispinesib -0.072 | [5] 0.058 | [4] 0.02 | mubritinib -0.434

RNF220 isoform 3 (UniProt Q5VTB9)
inactive: tipifarnib -0.282

RIC8B isoform 1 (UniProt Q9NVN3)
inactive: crizotinib -0.063 | [3] -0.027 | doramapimod 0.006

RNF169 (UniProt Q8NCN4)
inactive: [1] -0.091 | duvelisib -0.267 | gandotinib -0.196 | tozasertib 0.001 | [6] 0.221 | [5] 0.063 | dasatinib 0.028 | [2] 0.041 | tipifarnib 0.224

RNF111 isoform 3 (UniProt Q6ZNA4)
inactive: crizotinib 0.075 | gandotinib 0.054 | doramapimod -0.065 | [5] -0.088 | nilotinib 0.028 | [7] -0.093 | [8] -0.044
